Values of other authors in patent US7098204B2 (C.N.R.S., priority 1999, dated 2006).
pIC50: −log10 of the molar value.

Test system: 60 human tumor cell lines
Details: read-out: average IC50 over 60 human tumor cell lines (literature); cited from earlier work

In the case of `CC[C@H](CO)Nc1nc(NCc2ccccc2)c2ncn(C(C)C)c2n1` [roscovitine], the pIC50 is given as 4.80.
